For at least one entry, the source does not settle the construct or the ends of the probe. At least one result comes from cells or an extract, where the contact may be indirect. For some assays here: No signal at the amounts used counts as a negative. Tags and fusion partners may be left off the protein sequences shown.
How the values were obtained:
GATA-2 [1] = target: T1, GATA-2 (UniProt P23769); assay: EMSA; settings: K562 nuclear extract, 3 ug, band increases with GATA-2 overexpression, reduced by 100-fold unlabeled wild-type oligo; EMSA with 3 ug nuclear extract; pH and temperature not given (as described previously); protein in a lysate after overexpression; protein details: Myc-His vector (pcDNA(-)/Myc-His, printed Mys-His); label: FITC (probe), unlabeled as competitor
T1 sequence (looked up, limits assumed): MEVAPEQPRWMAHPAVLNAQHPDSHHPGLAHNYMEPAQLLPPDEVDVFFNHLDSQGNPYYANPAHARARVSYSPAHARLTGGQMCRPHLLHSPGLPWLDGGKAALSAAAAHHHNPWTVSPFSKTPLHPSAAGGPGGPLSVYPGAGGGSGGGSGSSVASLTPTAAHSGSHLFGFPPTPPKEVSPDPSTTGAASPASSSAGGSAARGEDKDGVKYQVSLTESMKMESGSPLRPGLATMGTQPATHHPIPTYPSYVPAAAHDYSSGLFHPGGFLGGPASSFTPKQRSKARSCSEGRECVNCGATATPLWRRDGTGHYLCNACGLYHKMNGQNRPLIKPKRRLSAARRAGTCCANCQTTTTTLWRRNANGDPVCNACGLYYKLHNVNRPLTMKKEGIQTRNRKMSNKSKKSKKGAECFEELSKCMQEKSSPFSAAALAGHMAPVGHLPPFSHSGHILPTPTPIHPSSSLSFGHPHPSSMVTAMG

GATA-2 [2] = target: T1, GATA-2; assay: competition with a labelled probe; settings: 100-fold molar excess unlabeled mutant vs FITC wild-type probe, did not affect binding; EMSA with 3 ug nuclear extract; pH and temperature not given (as described previously); protein in a lysate after overexpression; protein details: Myc-His vector (pcDNA(-)/Myc-His, printed Mys-His); label: none (unlabeled competitor)

Row | Sequence | binding result (GATA-2 [1]) | binding result (GATA-2 [2])
1 | GATTTCCTTATCCGGGAATC (double strand) [HOXB4 promoter GATA -160/-157 wild-type] | binds | –
2 | GATTTCCTAAACGGGAATC (double strand) [HOXB4 promoter GATA mutated] | – | no binding
